Data taken from PMC8448752.
These are yes or no findings as the source states them, for the method shown. Some results given as binding are weak or reduced against the parent protein; the word gives no strength.

The chains behind the UniProt entries cited, without tags or fusion partners.
UniProt P08318: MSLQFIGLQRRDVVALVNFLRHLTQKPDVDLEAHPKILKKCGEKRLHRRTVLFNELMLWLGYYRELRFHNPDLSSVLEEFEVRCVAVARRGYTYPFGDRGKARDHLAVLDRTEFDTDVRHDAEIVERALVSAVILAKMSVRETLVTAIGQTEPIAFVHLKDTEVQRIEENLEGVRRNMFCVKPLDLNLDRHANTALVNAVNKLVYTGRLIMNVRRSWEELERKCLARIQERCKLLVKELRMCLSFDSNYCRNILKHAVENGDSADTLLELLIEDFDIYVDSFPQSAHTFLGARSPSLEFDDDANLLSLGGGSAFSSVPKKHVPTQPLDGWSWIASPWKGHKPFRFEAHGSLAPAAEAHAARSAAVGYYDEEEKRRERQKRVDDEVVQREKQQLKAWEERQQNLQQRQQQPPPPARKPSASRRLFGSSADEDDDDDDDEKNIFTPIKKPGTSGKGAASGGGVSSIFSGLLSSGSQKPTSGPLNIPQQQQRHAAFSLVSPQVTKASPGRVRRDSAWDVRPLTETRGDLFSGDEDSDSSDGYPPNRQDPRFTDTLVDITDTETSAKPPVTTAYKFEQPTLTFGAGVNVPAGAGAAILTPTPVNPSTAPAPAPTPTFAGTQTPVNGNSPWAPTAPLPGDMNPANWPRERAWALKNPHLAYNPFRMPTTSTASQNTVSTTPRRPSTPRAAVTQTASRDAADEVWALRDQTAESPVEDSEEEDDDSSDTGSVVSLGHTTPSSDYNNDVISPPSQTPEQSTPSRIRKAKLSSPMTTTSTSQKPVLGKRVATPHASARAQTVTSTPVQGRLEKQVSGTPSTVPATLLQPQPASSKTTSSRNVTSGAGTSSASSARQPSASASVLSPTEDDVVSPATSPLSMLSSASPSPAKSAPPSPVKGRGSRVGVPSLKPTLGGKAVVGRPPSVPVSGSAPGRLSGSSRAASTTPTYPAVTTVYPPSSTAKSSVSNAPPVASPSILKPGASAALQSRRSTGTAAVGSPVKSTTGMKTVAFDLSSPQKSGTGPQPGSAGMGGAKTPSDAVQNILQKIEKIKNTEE

Molecular target: capsid-associated tegument protein pp150 (human cytomegalovirus (AD169 strain)) (UniProt P08318)
Test: cryo-EM structure

capsid-associated tegument protein pp150 (from UniProt P08318 1-1048)
binding: binds
